Experimental data from the supplement of paper PMC10849652.
This is one part of the list.

Chains of the proteins cited; added tags and fusions are not shown. Lines headed by an entry give the natural chain unless they say otherwise; changes in a name come on top.
UniProt Q9NVQ4: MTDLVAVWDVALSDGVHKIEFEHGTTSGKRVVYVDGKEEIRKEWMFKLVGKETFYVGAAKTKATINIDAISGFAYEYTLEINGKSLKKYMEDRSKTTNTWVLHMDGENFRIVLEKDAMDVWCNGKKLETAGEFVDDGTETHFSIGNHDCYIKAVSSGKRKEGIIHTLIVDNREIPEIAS
UniProt Q01844: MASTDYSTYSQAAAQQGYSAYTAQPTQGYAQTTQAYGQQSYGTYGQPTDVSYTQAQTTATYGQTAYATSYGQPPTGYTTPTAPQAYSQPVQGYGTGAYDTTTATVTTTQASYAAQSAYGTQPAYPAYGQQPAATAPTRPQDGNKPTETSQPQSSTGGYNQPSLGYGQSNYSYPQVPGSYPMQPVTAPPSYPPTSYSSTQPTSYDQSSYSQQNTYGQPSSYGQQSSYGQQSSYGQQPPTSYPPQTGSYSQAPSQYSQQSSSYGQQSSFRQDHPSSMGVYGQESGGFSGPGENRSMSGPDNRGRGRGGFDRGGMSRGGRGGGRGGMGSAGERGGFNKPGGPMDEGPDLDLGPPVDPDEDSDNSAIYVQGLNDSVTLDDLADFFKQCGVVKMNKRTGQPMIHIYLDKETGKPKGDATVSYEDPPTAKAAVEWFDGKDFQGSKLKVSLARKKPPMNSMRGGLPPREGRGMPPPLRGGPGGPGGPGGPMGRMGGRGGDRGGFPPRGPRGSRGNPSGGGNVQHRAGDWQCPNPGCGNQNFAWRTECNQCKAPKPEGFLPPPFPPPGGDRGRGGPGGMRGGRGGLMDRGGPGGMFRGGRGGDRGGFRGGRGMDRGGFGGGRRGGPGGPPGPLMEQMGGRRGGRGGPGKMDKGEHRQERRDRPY
UniProt P98173: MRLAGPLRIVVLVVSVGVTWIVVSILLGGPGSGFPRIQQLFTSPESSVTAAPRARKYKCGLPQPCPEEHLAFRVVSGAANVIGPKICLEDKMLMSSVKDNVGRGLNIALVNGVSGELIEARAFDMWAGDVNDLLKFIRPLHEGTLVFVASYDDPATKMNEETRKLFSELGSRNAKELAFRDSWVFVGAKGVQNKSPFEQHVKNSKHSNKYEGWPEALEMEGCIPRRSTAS
UniProt Q6P587: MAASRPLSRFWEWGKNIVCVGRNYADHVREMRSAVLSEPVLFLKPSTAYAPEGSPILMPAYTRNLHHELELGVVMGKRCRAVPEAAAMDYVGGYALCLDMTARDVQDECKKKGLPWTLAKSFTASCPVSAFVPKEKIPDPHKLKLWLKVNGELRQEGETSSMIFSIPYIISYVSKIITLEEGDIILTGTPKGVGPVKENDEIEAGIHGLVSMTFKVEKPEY
UniProt Q9H098: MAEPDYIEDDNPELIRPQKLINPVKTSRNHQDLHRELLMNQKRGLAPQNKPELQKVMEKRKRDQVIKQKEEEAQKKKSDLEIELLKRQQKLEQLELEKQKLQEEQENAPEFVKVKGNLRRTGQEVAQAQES
UniProt Q5JUQ0: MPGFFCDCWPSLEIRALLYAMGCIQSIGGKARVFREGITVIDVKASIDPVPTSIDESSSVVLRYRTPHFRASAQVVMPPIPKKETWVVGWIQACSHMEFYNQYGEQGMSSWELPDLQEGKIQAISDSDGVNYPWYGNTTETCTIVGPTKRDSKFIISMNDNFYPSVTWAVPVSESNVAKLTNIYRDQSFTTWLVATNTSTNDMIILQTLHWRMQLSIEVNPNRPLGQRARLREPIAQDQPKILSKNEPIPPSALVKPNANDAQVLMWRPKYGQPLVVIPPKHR
UniProt Q96PL5: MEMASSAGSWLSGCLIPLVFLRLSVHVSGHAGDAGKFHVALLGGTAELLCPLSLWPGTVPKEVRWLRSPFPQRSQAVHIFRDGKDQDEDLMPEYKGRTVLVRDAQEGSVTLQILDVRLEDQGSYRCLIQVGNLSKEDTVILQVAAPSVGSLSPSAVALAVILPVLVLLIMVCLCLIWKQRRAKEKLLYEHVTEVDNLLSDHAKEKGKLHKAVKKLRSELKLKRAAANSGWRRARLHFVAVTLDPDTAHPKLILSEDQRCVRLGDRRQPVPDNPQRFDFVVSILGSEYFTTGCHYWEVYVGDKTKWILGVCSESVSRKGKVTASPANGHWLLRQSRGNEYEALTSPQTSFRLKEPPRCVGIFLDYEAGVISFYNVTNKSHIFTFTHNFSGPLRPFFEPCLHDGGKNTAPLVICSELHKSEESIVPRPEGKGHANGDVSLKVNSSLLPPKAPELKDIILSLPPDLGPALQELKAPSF
UniProt Q9UNN5: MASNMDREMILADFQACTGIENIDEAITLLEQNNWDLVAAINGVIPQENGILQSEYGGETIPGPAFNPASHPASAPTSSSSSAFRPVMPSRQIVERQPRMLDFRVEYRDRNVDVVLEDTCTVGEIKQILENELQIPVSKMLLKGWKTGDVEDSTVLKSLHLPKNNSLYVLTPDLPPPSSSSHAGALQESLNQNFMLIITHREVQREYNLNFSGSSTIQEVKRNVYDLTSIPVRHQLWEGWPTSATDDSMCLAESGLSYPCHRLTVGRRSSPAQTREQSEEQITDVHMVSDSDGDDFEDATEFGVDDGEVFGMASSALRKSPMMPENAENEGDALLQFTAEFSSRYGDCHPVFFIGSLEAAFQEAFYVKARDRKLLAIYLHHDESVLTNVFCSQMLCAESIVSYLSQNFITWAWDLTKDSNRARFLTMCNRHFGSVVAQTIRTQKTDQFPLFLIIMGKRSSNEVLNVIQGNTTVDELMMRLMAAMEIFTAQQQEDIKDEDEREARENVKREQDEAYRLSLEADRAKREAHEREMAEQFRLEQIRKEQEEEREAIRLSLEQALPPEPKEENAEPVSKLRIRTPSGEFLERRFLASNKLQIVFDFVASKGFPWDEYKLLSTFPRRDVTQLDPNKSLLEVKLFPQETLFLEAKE
UniProt Q7Z2K6: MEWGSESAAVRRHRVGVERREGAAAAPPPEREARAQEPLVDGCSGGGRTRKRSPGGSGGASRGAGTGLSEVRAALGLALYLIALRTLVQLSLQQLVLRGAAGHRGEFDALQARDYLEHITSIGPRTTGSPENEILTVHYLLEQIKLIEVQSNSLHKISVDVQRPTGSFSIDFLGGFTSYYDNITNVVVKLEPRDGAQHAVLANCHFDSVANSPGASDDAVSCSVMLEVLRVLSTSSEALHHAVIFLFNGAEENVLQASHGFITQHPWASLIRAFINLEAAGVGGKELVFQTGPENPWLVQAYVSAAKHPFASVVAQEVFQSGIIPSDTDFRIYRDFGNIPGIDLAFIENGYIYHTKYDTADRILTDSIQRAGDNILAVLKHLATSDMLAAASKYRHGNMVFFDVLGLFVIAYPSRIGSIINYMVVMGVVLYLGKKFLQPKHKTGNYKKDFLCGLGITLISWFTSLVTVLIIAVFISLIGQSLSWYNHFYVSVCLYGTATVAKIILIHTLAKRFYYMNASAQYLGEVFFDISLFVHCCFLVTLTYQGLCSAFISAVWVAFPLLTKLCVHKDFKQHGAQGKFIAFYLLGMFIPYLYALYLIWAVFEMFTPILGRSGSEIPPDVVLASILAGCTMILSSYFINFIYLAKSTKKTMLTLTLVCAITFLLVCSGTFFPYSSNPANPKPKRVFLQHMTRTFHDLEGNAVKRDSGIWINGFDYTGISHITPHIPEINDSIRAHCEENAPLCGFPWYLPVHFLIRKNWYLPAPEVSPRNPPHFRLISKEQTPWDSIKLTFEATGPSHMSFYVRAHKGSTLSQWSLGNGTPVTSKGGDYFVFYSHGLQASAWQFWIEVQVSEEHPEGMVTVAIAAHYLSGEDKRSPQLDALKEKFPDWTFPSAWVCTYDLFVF
UniProt Q9UBQ6: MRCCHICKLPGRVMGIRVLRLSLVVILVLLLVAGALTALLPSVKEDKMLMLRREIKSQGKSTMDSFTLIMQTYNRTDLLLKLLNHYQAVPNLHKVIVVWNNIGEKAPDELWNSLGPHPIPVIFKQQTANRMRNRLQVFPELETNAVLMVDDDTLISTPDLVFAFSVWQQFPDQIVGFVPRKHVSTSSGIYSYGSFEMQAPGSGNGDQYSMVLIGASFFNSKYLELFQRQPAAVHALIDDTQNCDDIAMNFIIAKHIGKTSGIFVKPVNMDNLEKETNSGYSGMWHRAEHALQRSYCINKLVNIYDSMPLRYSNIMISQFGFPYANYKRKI
UniProt Q16134: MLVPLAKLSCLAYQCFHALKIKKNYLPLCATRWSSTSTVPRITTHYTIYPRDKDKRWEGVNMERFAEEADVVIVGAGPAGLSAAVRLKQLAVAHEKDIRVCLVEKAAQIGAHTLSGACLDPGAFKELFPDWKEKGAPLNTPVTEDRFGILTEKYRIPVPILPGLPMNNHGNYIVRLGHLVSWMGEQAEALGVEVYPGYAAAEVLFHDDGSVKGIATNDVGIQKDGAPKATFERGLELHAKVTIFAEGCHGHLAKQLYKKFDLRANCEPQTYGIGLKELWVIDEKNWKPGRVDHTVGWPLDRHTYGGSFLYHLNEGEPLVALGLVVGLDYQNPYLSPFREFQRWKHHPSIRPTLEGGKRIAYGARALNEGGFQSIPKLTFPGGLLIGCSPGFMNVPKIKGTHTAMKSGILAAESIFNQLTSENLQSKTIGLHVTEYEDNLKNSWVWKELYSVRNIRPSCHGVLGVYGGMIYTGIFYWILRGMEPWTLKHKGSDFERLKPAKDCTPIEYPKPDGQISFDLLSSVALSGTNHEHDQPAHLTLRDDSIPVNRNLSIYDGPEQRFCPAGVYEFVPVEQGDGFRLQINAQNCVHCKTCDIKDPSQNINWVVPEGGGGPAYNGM
UniProt Q9BS26: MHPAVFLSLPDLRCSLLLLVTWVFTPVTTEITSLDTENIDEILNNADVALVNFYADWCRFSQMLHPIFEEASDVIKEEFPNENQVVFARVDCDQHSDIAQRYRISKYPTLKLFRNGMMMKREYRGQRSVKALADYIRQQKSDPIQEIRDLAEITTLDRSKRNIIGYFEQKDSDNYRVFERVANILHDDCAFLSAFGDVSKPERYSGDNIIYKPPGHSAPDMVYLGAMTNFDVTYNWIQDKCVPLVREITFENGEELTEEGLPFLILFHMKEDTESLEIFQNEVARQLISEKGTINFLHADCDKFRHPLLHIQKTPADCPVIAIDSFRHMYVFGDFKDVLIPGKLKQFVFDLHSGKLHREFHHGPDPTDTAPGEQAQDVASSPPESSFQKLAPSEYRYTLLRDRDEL
UniProt Q96CS3: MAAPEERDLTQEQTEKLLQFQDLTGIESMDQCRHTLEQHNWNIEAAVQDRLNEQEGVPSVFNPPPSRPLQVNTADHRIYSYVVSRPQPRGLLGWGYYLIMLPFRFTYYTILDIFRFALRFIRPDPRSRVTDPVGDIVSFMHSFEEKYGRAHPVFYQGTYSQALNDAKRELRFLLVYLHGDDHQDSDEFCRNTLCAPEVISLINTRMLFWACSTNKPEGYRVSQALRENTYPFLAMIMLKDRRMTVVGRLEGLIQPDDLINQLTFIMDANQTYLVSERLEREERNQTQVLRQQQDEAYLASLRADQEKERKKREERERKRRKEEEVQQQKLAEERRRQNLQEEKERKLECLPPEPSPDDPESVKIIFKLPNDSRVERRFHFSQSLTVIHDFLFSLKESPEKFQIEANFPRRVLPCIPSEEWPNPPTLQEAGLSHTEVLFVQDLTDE
UniProt P38117: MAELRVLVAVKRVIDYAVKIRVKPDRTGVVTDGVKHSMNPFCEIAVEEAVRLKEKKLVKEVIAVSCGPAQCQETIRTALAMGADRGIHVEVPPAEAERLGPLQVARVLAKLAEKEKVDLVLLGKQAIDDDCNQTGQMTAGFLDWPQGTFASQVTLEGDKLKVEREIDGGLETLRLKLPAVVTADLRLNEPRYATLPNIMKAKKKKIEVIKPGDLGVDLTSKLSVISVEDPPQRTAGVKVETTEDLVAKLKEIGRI
UniProt O75063: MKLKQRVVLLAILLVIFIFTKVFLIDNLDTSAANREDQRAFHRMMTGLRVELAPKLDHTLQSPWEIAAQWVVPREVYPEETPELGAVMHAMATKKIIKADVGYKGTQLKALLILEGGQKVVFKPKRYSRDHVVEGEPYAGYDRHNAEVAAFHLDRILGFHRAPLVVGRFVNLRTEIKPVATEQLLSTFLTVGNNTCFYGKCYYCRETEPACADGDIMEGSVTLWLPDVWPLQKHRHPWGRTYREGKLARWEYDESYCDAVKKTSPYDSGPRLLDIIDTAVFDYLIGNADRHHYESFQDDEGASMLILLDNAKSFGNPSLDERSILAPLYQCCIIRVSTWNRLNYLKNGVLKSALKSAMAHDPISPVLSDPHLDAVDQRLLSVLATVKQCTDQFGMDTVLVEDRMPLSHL
UniProt Q13158: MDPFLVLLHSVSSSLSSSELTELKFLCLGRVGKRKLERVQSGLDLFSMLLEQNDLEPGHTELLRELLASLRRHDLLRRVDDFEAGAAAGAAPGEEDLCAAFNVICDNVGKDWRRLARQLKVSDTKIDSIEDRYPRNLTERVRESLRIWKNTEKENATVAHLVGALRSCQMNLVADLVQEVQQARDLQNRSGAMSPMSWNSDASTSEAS

Columns and labels:
Assay in all cases: log2 fold change, soluble protein after heating vs DMSO (PISA); higher = thermal stabilisation; K562 lysate, 10 uM; active = over 0.2 and 3.5 SD of the protein, either way, in both replicates (recomputed)
erlotinib = compound: C#Cc1cccc(Nc2ncnc3cc(OCCOC)c(OCCOC)cc23)c1 [erlotinib]
Procedure, shortened: (§1)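 Pellets of K562 cells were dounce-homogenised in PBS pH 7.4 with 1 mM MgCl2, and the crude extract was held at 1 mg/mL protein for a 30 min treatment with 10 μM compound. Aliquots were heated for 3 min over 48°C-58°C and pooled before NP-40 was added to 0.5% at 4°C. The supernatant from 21,000xg for 90 min was quantified by TMTpro 16plex LC-MS/MS with channel sums equalised. Values are reported from duplicates as log-two fold change in thermal stability relative to solvent controls.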

[1] = compound: C/C(=N\NC(=O)C1=CC(=CC=C1)S(=O)(=O)N2CCOCC2)/C3=C(C=CC(=C3)Cl)O
Procedure, shortened: as §1

[2] = compound: C1=CC(=CC=C1C2=NC3=C(N2)C=C(C=C3)C(=O)N)OC4=CC=C(C=C4)Cl
Procedure, shortened: as §1

[3] = compound: C1=CC2=C(C=CC(=C2)/C=C\3/C(=O)NC(=NCC4=CC=CS4)S3)N=C1
Procedure, shortened: as §1

[4] = compound: C1=CC2=NC=CN=C2C=C1/C=C/3\C(=O)NC(=O)S3
Procedure, shortened: as §1

[5] = compound: C1=CC=C(C=C1)C2=NC(=C(N2)C3=CC=NC=C3)C4=CC(=C(C=C4)Cl)O
Procedure, shortened: as §1

[6] = compound: C1=CC=C2C(=C1)C3=NNC4=CC=CC(=C43)C2=O
Procedure, shortened: as §1

[7] = compound: C1CCN(C1)C(=O)NC2=CC=CC(=C2)NC3=NC=C(C(=N3)NCCC4=CN=CN4)Br
Procedure, shortened: as §1

[8] = compound: C1CN(CCC1(CC2=CC=C(C=C2)Cl)N)C3=NC=NC4=C3C=CN4
Procedure, shortened: as §1

IRAK-1-4 Inhibitor I = compound: C1COCCN1CCN2C3=CC=CC=C3N=C2NC(=O)C4=CC(=CC=C4)[N+](=O)[O-] [IRAK-1-4 Inhibitor I]
Procedure, shortened: as §1

ibrutinib = compound: C=CC(=O)N1CCC[C@@H](n2nc(-c3ccc(Oc4ccccc4)cc3)c3c(N)ncnc32)C1 [ibrutinib]
Procedure, shortened: as §1

[9] = compound: CC(=O)c1cnc2ccc(-c3cc(Cl)c(O)c(Cl)c3)nc2c1N[C@H]1CC[C@H](CN(C)C)CC1
Procedure, shortened: as §1

ralimetinib = compound: CC(C)(C)Cn1c(N)nc2ccc(-c3[nH]c(C(C)(C)C)nc3-c3ccc(F)cc3)nc21 [ralimetinib]
Procedure, shortened: as §1

[10] = compound: CC(C)(O)CC(=O)NCCn1ccc2ncnc(Nc3ccc(Oc4cccc(C(F)(F)F)c4)c(Cl)c3)c21
Procedure, shortened: as §1

[11] = compound: CC(C)C1=C2N=C(C=C(N2N=C1)NCC3=CC=CC=C3)NCCCCCCN
Procedure, shortened: as §1

[12] = compound: CC1=C(C(CC(=O)N1)C2=CC=C(C=C2)C(F)(F)F)C(=O)NC3=C(C=C4C(=C3)C=NN4)F
Procedure, shortened: as §1

[13] = compound: CC1=C(C2=C(C=C1)C(=O)C3=CC=CC=C3N2CCCN)C
Procedure, shortened: as §1

[14] = compound: CC1=C(C=C(C=C1)NC(=O)C2=CC(=CC=C2)C(C)(C)C#N)NC3=CC4=C(C=C3)N=CN(C4=O)C
Procedure, shortened: as §1

[15] = compound: CC1=C(C=C(C=C1)NC(=O)C2=CC(=CC=C2)N(C)C)NC(=O)C3=CC=C(C=C3)O
Procedure, shortened: as §1

[16] = compound: CC1=CC=C(C=C1)SC2=C3C=C(SC3=CN=C2)C(=O)N
Procedure, shortened: as §1

Measured: log2 fold change

FAIM isoform 2 (UniProt Q9NVQ4)
inactive: erlotinib 0.148 | [1] 0.019 | [2] -0.104 | [3] 0.044 | [4] -0.068 | [5] -0.01 | [6] -0.115 | [7] 0.045 | [8] -0.026 | IRAK-1-4 Inhibitor I 0.07 | ibrutinib -0.027 | [9] 0.028 | ralimetinib -0.042 | [10] -0.071 | [11] -0.064 | [12] -0.132 | [13] 0.124 | [14] 0.076 | [15] 0.001 | [16] 0.116

EWSR1 isoform 5 (UniProt Q01844)
inactive: erlotinib -0.135 | [1] -0.037 | [2] -0.1 | [3] 0.012 | [4] 0.015 | [5] 0.037 | [6] 0.015 | [7] -0.009 | [8] -0.028 | IRAK-1-4 Inhibitor I 0.018 | ibrutinib -0.016 | [9] -0.026 | ralimetinib -0.017 | [10] -0.011 | [11] 0.038 | [12] -0.012 | [13] 0.016 | [14] -0.023 | [15] -0.033 | [16] 0

FAM3A (UniProt P98173)
inactive: erlotinib -0.047 | [1] 0.024 | [2] 0.005 | [3] -0.009 | [4] 0.143 | [5] -0.048 | [6] -0.023 | [7] 0.021 | [8] -0.043 | IRAK-1-4 Inhibitor I 0.055 | ibrutinib 0.012 | [9] 0.052 | ralimetinib -0.017 | [10] 0.009 | [11] 0.025 | [12] -0.078 | [13] 0.07 | [14] -0.05 | [15] -0.02 | [16] -0.076

FAHD1 (UniProt Q6P587)
inactive: erlotinib -0.033 | [1] 0.007 | [2] 0.098 | [3] -0.046 | [4] 0.031 | [5] 0.032 | [6] -0.067 | [7] -0.017 | [8] -0.197 | IRAK-1-4 Inhibitor I 0.184 | ibrutinib 0.056 | [9] 0 | ralimetinib -0.111 | [10] -0.154 | [11] -0.036 | [12] -0.011 | [13] -0.095 | [14] 0.067 | [15] -0.093 | [16] -0.006

FAM107B isoform 2 (UniProt Q9H098)
inactive: erlotinib 0.033 | [1] 0.064 | [2] 0.077 | [3] 0.024 | [4] -0.026 | [5] 0.064 | [6] -0.11 | [7] -0.005 | [8] 0.046 | IRAK-1-4 Inhibitor I -0.023 | ibrutinib -0.075 | [9] 0.035 | ralimetinib 0.033 | [10] -0.074 | [11] 0.008 | [12] -0.032 | [13] -0.013 | [14] 0 | [15] 0.022 | [16] 0.003

FAM78A (UniProt Q5JUQ0)
inactive: erlotinib -0.137 | [1] -0.106 | [2] -0.066 | [3] 0.03 | [4] -0.023 | [5] 0.07 | [6] -0.039 | [7] -0.075 | [8] 0.02 | IRAK-1-4 Inhibitor I 0.059 | ibrutinib -0.035 | [9] -0.311 | ralimetinib 0.111 | [10] -0.123 | [11] -0.056 | [12] 0.015 | [13] -0.05 | [14] -0.014 | [15] 0.013 | [16] 0.051

ERMAP (UniProt Q96PL5)
inactive: erlotinib -0.003 | [1] 0.158 | [2] 0.055 | [3] 0 | [4] 0 | [5] 0.057 | [6] -0.114 | [7] 0.021 | [8] 0.064 | IRAK-1-4 Inhibitor I 0.004 | ibrutinib 0.072 | [9] -0.01 | ralimetinib 0.003 | [10] -0.092 | [11] -0.061 | [12] 0.023 | [13] -0.051 | [14] -0.049 | [15] -0.042 | [16] 0.039

FAF1 (UniProt Q9UNN5)
inactive: erlotinib -0.006 | [1] 0.01 | [2] 0 | [3] 0.005 | [4] -0.002 | [5] 0.003 | [6] 0.007 | [7] 0.031 | [8] -0.003 | IRAK-1-4 Inhibitor I -0.006 | ibrutinib 0.028 | [9] -0.012 | ralimetinib -0.014 | [10] -0.013 | [11] -0.013 | [12] -0.014 | [13] -0.02 | [14] -0.01 | [15] 0.016 | [16] -0.024

ERMP1 (UniProt Q7Z2K6)
inactive: erlotinib 0.015 | [1] -0.002 | [2] -0.009 | [3] 0.019 | [4] -0.004 | [5] -0.012 | [6] -0.041 | [7] 0.002 | [8] 0.016 | IRAK-1-4 Inhibitor I 0.002 | ibrutinib 0.041 | [9] 0.002 | ralimetinib -0.01 | [10] -0.028 | [11] 0.025 | [12] -0.052 | [13] 0.001 | [14] 0.031 | [15] 0.057 | [16] 0.007

Copied from the listing (2 entries):
ERMAP (UniProt Q96PL5)
inactive: erlotinib -0.003 | [1] 0.158 | [2] 0.055 | [3] 0 | [4] 0 | [5] 0.057 | [6] -0.114 | [7] 0.021 | [8] 0.064 | IRAK-1-4 Inhibitor I 0.004 | ibrutinib 0.072 | [9] -0.01 | ralimetinib 0.003 | [10] -0.092 | [11] -0.061 | [12] 0.023 | [13] -0.051 | [14] -0.049 | [15] -0.042 | [16] 0.039

FAF1 (UniProt Q9UNN5)
inactive: erlotinib -0.006 | [1] 0.01 | [2] 0 | [3] 0.005 | [4] -0.002 | [5] 0.003 | [6] 0.007 | [7] 0.031 | [8] -0.003 | IRAK-1-4 Inhibitor I -0.006 | ibrutinib 0.028 | [9] -0.012 | ralimetinib -0.014 | [10] -0.013 | [11] -0.013 | [12] -0.014 | [13] -0.02 | [14] -0.01 | [15] 0.016 | [16] -0.024

Remaining list, next part

EXTL2 (UniProt Q9UBQ6)
inactive: erlotinib -0.02 | [1] -0.037 | [2] 0.072 | [3] 0.103 | [4] -0.443 | [5] 0 | [6] 0.092 | [7] 0.003 | [8] -0.007 | IRAK-1-4 Inhibitor I -0.049 | ibrutinib 0.217 | [9] -0.056 | ralimetinib -0.015 | [10] 0 | [11] -0.077 | [12] 0.021 | [13] -0.146 | [14] 0.014 | [15] -0.04 | [16] -0.071

ETFDH (UniProt Q16134)
inactive: erlotinib -0.024 | [1] 0.031 | [2] 0.006 | [3] -0.034 | [4] 0.008 | [5] -0.006 | [6] -0.009 | [7] 0.108 | [8] 0.021 | IRAK-1-4 Inhibitor I 0.034 | ibrutinib -0.012 | [9] -0.02 | ralimetinib 0.017 | [10] -0.045 | [11] -0.031 | [12] 0.001 | [13] -0.029 | [14] -0.002 | [15] -0.002 | [16] -0.001

ERP44 (UniProt Q9BS26)
inactive: erlotinib -0.032 | [1] 0.015 | [2] 0.009 | [3] 0 | [4] -0.009 | [5] -0.022 | [6] -0.011 | [7] 0.007 | [8] 0 | IRAK-1-4 Inhibitor I -0.011 | ibrutinib 0.055 | [9] -0.017 | ralimetinib 0.02 | [10] -0.019 | [11] 0.006 | [12] 0.003 | [13] 0.008 | [14] -0.017 | [15] 0.004 | [16] -0.003

FAF2 (UniProt Q96CS3)
inactive: erlotinib 0.024 | [1] 0.005 | [2] -0.016 | [3] 0.021 | [4] -0.031 | [5] -0.001 | [6] -0.016 | [7] -0.012 | [8] 0.031 | IRAK-1-4 Inhibitor I 0.034 | ibrutinib 0.041 | [9] 0.057 | ralimetinib 0.045 | [10] -0.009 | [11] 0.018 | [12] -0.036 | [13] 0.045 | [14] 0.034 | [15] 0.006 | [16] 0.041

ETFB (UniProt P38117)
inactive: erlotinib -0.023 | [1] -0.008 | [2] 0.022 | [3] -0.045 | [4] 0.002 | [5] 0 | [6] -0.017 | [7] -0.004 | [8] 0.021 | IRAK-1-4 Inhibitor I -0.017 | ibrutinib -0.053 | [9] -0.008 | ralimetinib -0.024 | [10] -0.009 | [11] -0.016 | [12] -0.037 | [13] 0 | [14] -0.014 | [15] 0.011 | [16] -0.006

FAM20B (UniProt O75063)
inactive: erlotinib 0.021 | [1] 0.081 | [2] -0.039 | [3] -0.038 | [4] 0.016 | [5] -0.035 | [6] -0.009 | [7] -0.05 | [8] -0.001 | IRAK-1-4 Inhibitor I -0.028 | ibrutinib 0.04 | [9] 0.021 | ralimetinib -0.026 | [10] 0.009 | [11] -0.043 | [12] 0.023 | [13] -0.113 | [14] -0.031 | [15] -0.063 | [16] -0.046

FADD (UniProt Q13158)
inactive: erlotinib -0.008 | [1] 0.034 | [2] -0.031 | [3] -0.063 | [4] -0.005 | [5] -0.05 | [6] 0.073 | [7] 0.022 | [8] -0.041 | IRAK-1-4 Inhibitor I -0.005 | ibrutinib -0.01 | [9] 0.01 | ralimetinib 0.032 | [10] 0.021 | [11] 0.044 | [12] 0.073 | [13] 0.007 | [14] 0.009 | [15] 0.006 | [16] 0.007
